Publication PMC7693276

Target: T1, central subunit NDUFS2 of Y. lipolytica complex I (Y. lipolytica) (UniProt Q9UUU1)
T1 sequence: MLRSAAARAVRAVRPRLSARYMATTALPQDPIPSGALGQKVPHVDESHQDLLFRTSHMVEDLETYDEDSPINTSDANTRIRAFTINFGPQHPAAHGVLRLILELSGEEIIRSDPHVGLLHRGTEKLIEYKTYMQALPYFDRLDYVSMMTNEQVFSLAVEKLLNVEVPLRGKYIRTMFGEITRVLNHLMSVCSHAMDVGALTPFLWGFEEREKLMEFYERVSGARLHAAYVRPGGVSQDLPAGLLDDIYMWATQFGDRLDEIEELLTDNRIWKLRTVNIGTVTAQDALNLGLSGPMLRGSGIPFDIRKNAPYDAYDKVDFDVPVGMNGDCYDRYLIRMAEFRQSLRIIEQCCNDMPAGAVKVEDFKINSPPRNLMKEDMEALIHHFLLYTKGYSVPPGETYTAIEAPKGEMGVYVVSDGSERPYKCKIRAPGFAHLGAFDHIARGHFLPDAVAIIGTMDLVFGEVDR
Assay: cryo-EM structure; complex I F89A^LYRM6 mutant purified in LMNG, polished on MonoQ, applied at 1.5 mg/ml; final map at 2.96 Å; model built on the WT structure PDB 6RFR as template; both purified

accessory subunit LYRM6 (NDUFA6) mutant F89A of Y. lipolytica complex I
binding: binds

These are yes or no findings as the source states them, for the method shown. Binding can be weak; no strength is given.
